# The list shows a part of the results.
# Key:
# Assay in all cases: glycan array binding signal (z-score within array); higher = stronger binding
# Details in all cases: glycan notation: IUPAC condensed, linker removed
# GlcNAc(b1-3)Gal(b1-4)Glc = target: GlcNAc(b1-3)Gal(b1-4)Glc
# Procedure, shortened: (§1)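 The binding signal is a Z-score computed within each array and averaged over linkers. Arrays of the same protein sequence at different concentrations or buffers were also averaged together. Data originate from 3228 arrays in the Consortium for Functional Glycomics database, kept only where the protein sequence was available.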
# [1] = target: GlcNAc(b1-3)Gal(b1-4)GlcNAc
# Procedure, shortened: as §1
# [2] = target: GlcNAc(b1-3)Gal(b1-4)GlcNAc(b1-2)Man(a1-3)[GlcNAc(b1-3)Gal(b1-4)GlcNAc(b1-2)Man(a1-6)]Man(b1-4)GlcNAc(b1-4)GlcNAc
# Procedure, shortened: as §1
# [3] = target: GlcNAc(b1-3)Gal(b1-4)GlcNAc(b1-2)Man(a1-3)[GlcNAc(b1-3)Gal(b1-4)GlcNAc(b1-2)Man(a1-6)]Man(b1-4)GlcNAc(b1-4)[Fuc(a1-6)]GlcNAc
# Procedure, shortened: as §1
# [4] = target: GlcNAc(b1-3)Gal(b1-4)GlcNAc(b1-2)[GlcNAc(b1-3)Gal(b1-4)GlcNAc(b1-6)]Man(a1-6)[GlcNAc(b1-3)Gal(b1-4)GlcNAc(b1-2)Man(a1-3)]Man(b1-4)GlcNAc(b1-4)GlcNAc
# Procedure, shortened: as §1
# [5] = target: GlcNAc(b1-3)Gal(b1-4)GlcNAc(b1-3)Gal(b1-4)GlcNAc
# Procedure, shortened: as §1
# [6] = target: GlcNAc(b1-3)Gal(b1-4)GlcNAc(b1-3)Gal(b1-4)GlcNAc(b1-2)Man(a1-3)[GlcNAc(b1-3)Gal(b1-4)GlcNAc(b1-3)Gal(b1-4)GlcNAc(b1-2)Man(a1-6)]Man(b1-4)GlcNAc(b1-4)GlcNAc
# Procedure, shortened: as §1
# [7] = target: GlcNAc(b1-3)Gal(b1-4)GlcNAc(b1-3)Gal(b1-4)GlcNAc(b1-2)Man(a1-3)[GlcNAc(b1-3)Gal(b1-4)GlcNAc(b1-3)Gal(b1-4)GlcNAc(b1-2)Man(a1-6)]Man(b1-4)GlcNAc(b1-4)[Fuc(a1-6)]GlcNAc
# Procedure, shortened: as §1
# [8] = target: GlcNAc(b1-3)Gal(b1-4)GlcNAc(b1-3)Gal(b1-4)GlcNAc(b1-2)[GlcNAc(b1-3)Gal(b1-4)GlcNAc(b1-3)Gal(b1-4)GlcNAc(b1-6)]Man(a1-6)[GlcNAc(b1-3)Gal(b1-4)GlcNAc(b1-3)Gal(b1-4)GlcNAc(b1-2)Man(a1-3)]Man(b1-4)GlcNAc(b1-4)[Fuc(a1-6)]GlcNAc
# Procedure, shortened: as §1
# [9] = target: GlcNAc(b1-3)Gal(b1-4)GlcNAc(b1-3)Gal(b1-4)GlcNAc(b1-3)Gal(b1-4)GlcNAc(b1-2)Man(a1-3)[GlcNAc(b1-3)Gal(b1-4)GlcNAc(b1-3)Gal(b1-4)GlcNAc(b1-3)Gal(b1-4)GlcNAc(b1-2)Man(a1-6)]Man(b1-4)GlcNAc(b1-4)GlcNAc
# Procedure, shortened: as §1
# [10] = target: GlcNAc(b1-3)Gal(b1-4)GlcNAc(b1-3)Gal(b1-4)GlcNAc(b1-3)Gal(b1-4)GlcNAc(b1-2)Man(a1-3)[GlcNAc(b1-3)Gal(b1-4)GlcNAc(b1-3)Gal(b1-4)GlcNAc(b1-3)Gal(b1-4)GlcNAc(b1-2)Man(a1-6)]Man(b1-4)GlcNAc(b1-4)[Fuc(a1-6)]GlcNAc
# Procedure, shortened: as §1
# [11] = target: GlcNAc(b1-3)Gal(b1-4)GlcNAc(b1-3)Gal(b1-4)GlcNAc(b1-3)Gal(b1-4)GlcNAc(b1-2)[GlcNAc(b1-3)Gal(b1-4)GlcNAc(b1-3)Gal(b1-4)GlcNAc(b1-3)Gal(b1-4)GlcNAc(b1-6)]Man(a1-6)[GlcNAc(b1-3)Gal(b1-4)GlcNAc(b1-3)Gal(b1-4)GlcNAc(b1-3)Gal(b1-4)GlcNAc(b1-2)Man(a1-3)]Man(b1-4)GlcNAc(b1-4)[Fuc(a1-6)]GlcNAc
# Procedure, shortened: as §1
# [12] = target: GlcNAc(b1-3)Gal(b1-4)GlcNAc(b1-3)Gal(b1-4)GlcNAc(b1-3)Gal(b1-4)GlcNAc(b1-3)Gal(b1-4)GlcNAc(b1-2)Man(a1-3)[GlcNAc(b1-3)Gal(b1-4)GlcNAc(b1-3)Gal(b1-4)GlcNAc(b1-3)Gal(b1-4)GlcNAc(b1-3)Gal(b1-4)GlcNAc(b1-2)Man(a1-6)]Man(b1-4)GlcNAc(b1-4)GlcNAc
# Procedure, shortened: as §1
# [13] = target: GlcNAc(b1-3)Gal(b1-4)GlcNAc(b1-3)Gal(b1-4)GlcNAc(b1-3)Gal(b1-4)GlcNAc(b1-3)Gal(b1-4)GlcNAc(b1-2)Man(a1-3)[GlcNAc(b1-3)Gal(b1-4)GlcNAc(b1-3)Gal(b1-4)GlcNAc(b1-3)Gal(b1-4)GlcNAc(b1-3)Gal(b1-4)GlcNAc(b1-2)Man(a1-6)]Man(b1-4)GlcNAc(b1-4)[Fuc(a1-6)]GlcNAc
# Procedure, shortened: as §1
# [14] = target: GlcNAc(b1-3)Gal(b1-4)GlcNAc(b1-3)Gal(b1-4)GlcNAc(b1-3)Gal(b1-4)GlcNAc(b1-3)Gal(b1-4)GlcNAc(b1-2)[GlcNAc(b1-3)Gal(b1-4)GlcNAc(b1-3)Gal(b1-4)GlcNAc(b1-3)Gal(b1-4)GlcNAc(b1-3)Gal(b1-4)GlcNAc(b1-6)]Man(a1-6)[GlcNAc(b1-3)Gal(b1-4)GlcNAc(b1-3)Gal(b1-4)GlcNAc(b1-3)Gal(b1-4)GlcNAc(b1-3)Gal(b1-4)GlcNAc(b1-2)Man(a1-3)]Man(b1-4)GlcNAc(b1-4)[Fuc(a1-6)]GlcNAc
# Procedure, shortened: as §1
# [15] = target: GlcNAc(b1-3)Gal(b1-4)GlcNAc(b1-3)Gal(b1-4)GlcNAc(b1-3)GalNAc
# Procedure, shortened: as §1
# [16] = target: GlcNAc(b1-3)Gal(b1-4)GlcNAc(b1-3)GalNAc
# Procedure, shortened: as §1
# [17] = target: GlcNAc(b1-3)Gal(b1-4)GlcNAc(b1-3)[GlcNAc(b1-3)Gal(b1-4)GlcNAc(b1-3)]GalNAc
# Procedure, shortened: as §1
# [18] = target: GlcNAc(b1-3)Gal(b1-4)GlcNAc(b1-6)[Gal(b1-3)]GalNAc
# Procedure, shortened: as §1
# [19] = target: GlcNAc(b1-3)Gal(b1-4)GlcNAc(b1-6)[GlcNAc(b1-3)Gal(b1-3)]GalNAc
# Procedure, shortened: as §1
# [20] = target: GlcNAc(b1-3)Gal(b1-4)GlcNAc(b1-6)[GlcNAc(b1-3)]Gal(b1-4)GlcNAc
# Procedure, shortened: as §1
# GlcNAc(b1-3)GalNAc = target: GlcNAc(b1-3)GalNAc
# Procedure, shortened: as §1
# GlcNAc(b1-3)Man = target: GlcNAc(b1-3)Man
# Procedure, shortened: as §1
# [21] = target: GlcNAc(b1-3)[GlcNAc(b1-4)][GlcNAc(b1-6)]GlcNAc
# Procedure, shortened: as §1
# [22] = target: GlcNAc(b1-3)[GlcNAc(b1-6)]Gal(b1-4)GlcNAc
# Procedure, shortened: as §1
# [23] = target: GlcNAc(b1-3)[GlcNAc(b1-6)]GalNAc
# Procedure, shortened: as §1
# [24] = target: GlcNAc(b1-4)Gal(b1-4)GlcNAc
# Procedure, shortened: as §1
# GlcNAc(b1-4)GlcNAc = target: GlcNAc(b1-4)GlcNAc
# Procedure, shortened: as §1
# [25] = target: GlcNAc(b1-4)GlcNAc(b1-4)GlcNAc
# Procedure, shortened: as §1
# [26] = target: GlcNAc(b1-4)GlcNAc(b1-4)GlcNAc(b1-4)GlcNAc(b1-4)GlcNAc
# Procedure, shortened: as §1
# [27] = target: GlcNAc(b1-4)GlcNAc(b1-4)GlcNAc(b1-4)GlcNAc(b1-4)GlcNAc(b1-4)GlcNAc
# Procedure, shortened: as §1
# [28] = target: GlcNAc(b1-4)[GlcNAc(b1-6)]GalNAc
# Procedure, shortened: as §1
# [29] = target: GlcNAc(b1-6)Gal(b1-4)GlcNAc
# Procedure, shortened: as §1
# GlcNAc(b1-6)GalNAc = target: GlcNAc(b1-6)GalNAc
# Procedure, shortened: as §1
# [30] = target: GlcNAc6S(b1-3)Gal(b1-4)GlcNAc
# Procedure, shortened: as §1
# Kdn(a2-3)Gal(b1-3)GalNAc = target: Kdn(a2-3)Gal(b1-3)GalNAc
# Procedure, shortened: as §1
# Kdn(a2-3)Gal(b1-3)GlcNAc = target: Kdn(a2-3)Gal(b1-3)GlcNAc
# Procedure, shortened: as §1
binder,measurement,setting,value
PX14343C-bfa-541-26-541 (Bacteroides fragilis) (protein) KAPLDEIADDSFWSDETLVKYYVNDLYSEISVDGLQLQENRSDNSVSAQRDKYRASWFKFNYDMVSASDPQDDDVWEDYYVKVRKCNRFFERIGTSTIEESEKSRLTGEVHFLRAMFYFEMVKRYGGVILLDKVLTMEDNWEIPRSSEKECYDFILEDLKKATEMLPASYGSREKGRATKGAAYALKSRVELYDKRYEDVIKSCAEVYKLGYELVDGTTPEKYRSIWWTTNKDNKEIIFDVQYKSPDVYNNMMVCNMVTYINDKYGDRGWGGLGPTQELIDAFEMADGTPATQYSQAPADQVFDINTCGIYEGREPRFYANIVFHGSQIFFNADKGAVTVDRYLMDTPDKGDGSLTGYNVWKWIDYDNYNYPYAGAGSPDFSTNWIILRYAEIYLNDAEARLETGDVEGARKAVNMIRQRVGLPDLTESDPEKLRELIRKERRIEFAFEEQRFYDVRRWKIGPETQTTLHGVRFVSPTEFKVTKTDIRTWNDRLYLTPVPHDEIVRSSVLKQNLGY,glycan array binding signal (z-score),GlcNAc(b1-3)Gal(b1-4)Glc,-1.11
same,glycan array binding signal (z-score),[1],-0.99
same,glycan array binding signal (z-score),[2],-0.343
same,glycan array binding signal (z-score),[3],0.544
same,glycan array binding signal (z-score),[4],0.567
same,glycan array binding signal (z-score),[5],-0.757
same,glycan array binding signal (z-score),[6],0.981
same,glycan array binding signal (z-score),[7],0.475
same,glycan array binding signal (z-score),[8],0.203
same,glycan array binding signal (z-score),[9],-0.345
same,glycan array binding signal (z-score),[10],0.742
same,glycan array binding signal (z-score),[11],-1.07
same,glycan array binding signal (z-score),[12],0.029
same,glycan array binding signal (z-score),[13],0.103
same,glycan array binding signal (z-score),[14],0.52
same,glycan array binding signal (z-score),[15],-0.553
same,glycan array binding signal (z-score),[16],0.215
same,glycan array binding signal (z-score),[17],-0.69
same,glycan array binding signal (z-score),[18],0.164
same,glycan array binding signal (z-score),[19],-0.265
same,glycan array binding signal (z-score),[20],0.526
same,glycan array binding signal (z-score),GlcNAc(b1-3)GalNAc,0.038
same,glycan array binding signal (z-score),GlcNAc(b1-3)Man,-0.424
same,glycan array binding signal (z-score),[21],-0.45
same,glycan array binding signal (z-score),[22],0.293
same,glycan array binding signal (z-score),[23],-0.521
same,glycan array binding signal (z-score),[24],-0.788
same,glycan array binding signal (z-score),GlcNAc(b1-4)GlcNAc,-0.488
same,glycan array binding signal (z-score),[25],0.281
same,glycan array binding signal (z-score),[26],-1.29
same,glycan array binding signal (z-score),[27],-0.569
same,glycan array binding signal (z-score),[28],0.904
same,glycan array binding signal (z-score),[29],-1.19
same,glycan array binding signal (z-score),GlcNAc(b1-6)GalNAc,0.031
same,glycan array binding signal (z-score),[30],-0.281
same,glycan array binding signal (z-score),Kdn(a2-3)Gal(b1-3)GalNAc,-0.183
same,glycan array binding signal (z-score),Kdn(a2-3)Gal(b1-3)GlcNAc,-0.157

# Quoted at random: 2 records from the list, in no set order.
binder,measurement,setting,value
PX14343C-bfa-541-26-541 (Bacteroides fragilis) (protein) KAPLDEIADDSFWSDETLVKYYVNDLYSEISVDGLQLQENRSDNSVSAQRDKYRASWFKFNYDMVSASDPQDDDVWEDYYVKVRKCNRFFERIGTSTIEESEKSRLTGEVHFLRAMFYFEMVKRYGGVILLDKVLTMEDNWEIPRSSEKECYDFILEDLKKATEMLPASYGSREKGRATKGAAYALKSRVELYDKRYEDVIKSCAEVYKLGYELVDGTTPEKYRSIWWTTNKDNKEIIFDVQYKSPDVYNNMMVCNMVTYINDKYGDRGWGGLGPTQELIDAFEMADGTPATQYSQAPADQVFDINTCGIYEGREPRFYANIVFHGSQIFFNADKGAVTVDRYLMDTPDKGDGSLTGYNVWKWIDYDNYNYPYAGAGSPDFSTNWIILRYAEIYLNDAEARLETGDVEGARKAVNMIRQRVGLPDLTESDPEKLRELIRKERRIEFAFEEQRFYDVRRWKIGPETQTTLHGVRFVSPTEFKVTKTDIRTWNDRLYLTPVPHDEIVRSSVLKQNLGY,glycan array binding signal (z-score),[30],-0.281
same,glycan array binding signal (z-score),Kdn(a2-3)Gal(b1-3)GalNAc,-0.183

# — the supplement of paper PMC8728848
